Here are results for one compound from patent US20260000632A1, “STRUCTURALLY MODIFIED FATTY ACIDS FOR IMPROVING GLYCEMIC CONTROL AND TREATING INFLAMMATORY BOWEL DISEASE” (Northsea Therapeutics B.V., priority 2018, published 2026).

In this series the test system is ob/ob mice. Briefly: Chronic treatment in ob/ob mice: basal parameters after 4 weeks. The following applies: 4 weeks diet admix, Compound A 135, fenofibrate 100, pioglitazone 30 mg/kg bw/d, mean ± SEM. The series is classed as in vivo, mouse. The protocol: Mice were fed a standard low-fat (7% w/w fat) diet. After 4-weeks, the mice were fasted for 4 hours and the effects of Compound A were assessed. Assessment of the effects of Compound A included basal levels of blood glucose, plasma insulin, HbA1c levels, and homeostatic model assessment of insulin resistance (HOMA-IR). HOMA-IR is an assessment of insulin resistance and is calculated by the following formula: fasting insulin (micro U/L)×fasting glucose […]/22.5.

Molecules are shown by their SMILES.

`CC/C=C\C/C=C\C/C=C\C/C=C\C/C=C\CCCCOC(CC)C(=O)O` (centres unmarked) [Compound A, 2-(((5Z,8Z,11Z,14Z,17Z)-icosa-5,8,11,14,17-pentaen-1-yl)oxy)butanoic acid] had a Body weight (4 h fast, control 54.5 ± 1.5) of 55.0 ± 1.1 g. The compound further registered a Food intake (control 6.8 ± 0.5) of 6.1 ± 0.3 g/m/d.
